No constants are given. Whether binding was seen depends on the method and setting. Binding seen in cells or lysates may run through a third protein. Here binding means that the protein was enriched with, or labelled near, the bait; the list need not be complete.
Biological target: Flag-tagged IDH1 wild type (isocitrate dehydrogenase 1) (human) (UniProt O75874)
Experiment: affinity purification with mass spectrometry; Flag beads-bound proteins from Ishikawa cells with Flag-IDH1, with or without MPA for 24 h; trypsin digest, Q Exactive Plus

B1: OCT6 (protein, UniProt Q03052 1-451)
chain: MATTAQYLPRGPGGGAGGTGPLMHPDAAAAAAAAAAAERLHAGAAYREVQKLMHHEWLGAGAGHPVGLAHPQWLPTGGGGGGDWAGGPHLEHGKAGGGGTGRADDGGGGGGFHARLVHQGAAHAGAAWAQGSTAHHLGPAMSPSPGASGGHQPQPLGLYAQAAYPGGGGGGLAGMLAAGGGGAGPGLHHALHEDGHEAQLEPSPPPHLGAHGHAHGHAHAGGLHAAAAHLHPGAGGGGSSVGEHSDEDAPSSDDLEQFAKQFKQRRIKLGFTQADVGLALGTLYGNVFSQTTICRFEALQLSFKNMCKLKPLLNKWLEETDSSSGSPTNLDKIAAQGRKRKKRTSIEVGVKGALESHFLKCPKPSAHEITGLADSLQLEKEVVRVWFCNRRQKEKRMTPAAGAGHPPMDDVYAPGELGPGGGGASPPSAPPPPPPAALHHHHHHTLPGSVQ
Q: B1 was tested. Which binding did it give?
A: binds
